Experimental findings from the supplement of paper PMC7877785 are described below.

± gives the uncertainty stated by the source. Many of these values have a large error.

The series is described as follows: self-splicing fitness, log relative to wild type (ln ratio); higher = more splicing; Tetrahymena group I intron in knt gene, E. coli kanamycin selection, DiMSum; sequences stand for … in CUCUCU…GGAGGGAAAAGUUAUCAGGCAUGCACCUGGUAGCUAGUCUUUAAACCAAUAGAUUGCAUCGGUUUAAAAGGCAAGACCGUCAAAUUGCGGGAAAGGGGUCAACAGCCGUUCAGUACCAAGUCUCAGGGGAAACUUUGAGAUGGCCUUGCAAAGGGUAUGGUAAUAAGCUGACGGACAUGGUCCUAACCACGCAGCCAAGUCCUAAGUCAACAGAUCUUCUGUUGAUAUGGAUGCAGUUCACAGACUAAAUGUCGGUCGGGGAAGAUGUAUUCUUCUCAUAAGAUAUAGUCGGACCUCUCCUUAAUGGGAGCUAGCGGAUGAAGUGAUGCAACACUGGAGCCGCUGGGAACUAAUUUGUAUGCGAAAGUAUAUUGAUUAGUUUUGGAGUACUCGUGGUCG
In short, it runs like this: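 Fitness was computed with DiMSum as the error-weighted combination of replicate fold changes, kanamycin versus none, each normalised to wild type. The library randomised all eight intron nucleotides of the P1ex region, with the intron placed in the knt kanamycin-resistance gene on pET-22b(+) in E. coli BL21(DE3). Six replicate transformations were grown overnight at 37°C or 30°C on LB agar with or without 25 μg/mL kanamycin, plus 100 μg/mL carbenicillin, 50 μM IPTG and 0.2% rhamnose. Pooled colonies were amplicon-sequenced on an Illumina HiSeq 2500.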

Turning to UACUAGCAAUAUUACGGACC, the “self-splicing fitness (ln)” value (30 °C) was -1.47 ± 0.5.
The same measure, in the same setting: under GGGAAGCAAUAUUACGAACC stands -2.81 ± 1.1.
Regarding GUCGAGCAAUAUUACGCACG, the “self-splicing fitness (ln)” value (37 °C) is -1.39 ± 1.2.
Turning to AUUGAGCAAUAUUACGUCUC, the “self-splicing fitness (ln)” value (30 °C) is -3.38 ± 0.53.
Still for that read-out and setting: under CGUGAGCAAUAUUACGCCCA stands -3.49 ± 0.54.
With UAUUAGCAAUAUUACGAGUC, the “self-splicing fitness (ln)” value (37 °C) was -2.57 ± 1.1.
Take GACGAGCAAUAUUACGUGAA: the “self-splicing fitness (ln)” value (30 °C) is -4.91 ± 0.71.
For the sequence AUCCAGCAAUAUUACGUAGA, the “self-splicing fitness (ln)” value (30 °C) is -0.783 ± 0.073 and the “self-splicing fitness (ln)” value (37 °C) is -0.0552 ± 0.12.
Taken in the same sequence, the figures for UGAUAGCAAUAUUACGGUCU were -0.913 ± 0.12 and -0.257 ± 0.15.
On to AAGCAGCAAUAUUACGAAAU, for which the “self-splicing fitness (ln)” value is -2.65 ± 0.11 (30 °C) and -1.33 ± 0.12 (37 °C).
For UAGGAGCAAUAUUACGCGAA the same measures were -3.07 ± 1.1 and -2.36 ± 0.55.
Taken in the same sequence, the figures for ACCUAGCAAUAUUACGCGCG were -0.971 ± 0.13 and 0.377 ± 0.13.
Regarding CGAAAGCAAUAUUACGGAAC, where the note is “37 °C”, the “self-splicing fitness (ln)” value was -2.26 ± 0.64.
Still for that read-out and setting: the same measure for CGGAAGCAAUAUUACGUCCG: -2.3 ± 0.78.
With ACAGAGCAAUAUUACGCCCU, the “self-splicing fitness (ln)” value runs as follows: (30 °C) -3.23 ± 0.23; (37 °C) -2.02 ± 0.3.
As to CAGUAGCAAUAUUACGCCAC, the “self-splicing fitness (ln)” value (37 °C) is -0.571 ± 0.61.
For UGCAAGCAAUAUUACGCUUG, the “self-splicing fitness (ln)” value (30 °C) was -4.3 ± 0.6.
For CAGGAGCAAUAUUACGAAUC, the “self-splicing fitness (ln)” value (30 °C) is -4.11 ± 0.75 and the “self-splicing fitness (ln)” value (37 °C) was -2.9 ± 0.61.
In the case of GAGAAGCAAUAUUACGCCAC, where the note is “30 °C”, the “self-splicing fitness (ln)” value is -3.42 ± 0.61.
Same read-out and setting: under UCCGAGCAAUAUUACGAGCU stands -3.69 ± 0.52.
As to UGGCAGCAAUAUUACGCAUG, the “self-splicing fitness (ln)” value runs as follows: (30 °C) -1.78 ± 0.63; (37 °C) 0.321 ± 1.2.
Turning to GGGGAGCAAUAUUACGAGGG, for the setting “37 °C”, the “self-splicing fitness (ln)” value was -3.08 ± 0.74.
For the sequence UCGGAGCAAUAUUACGUUAG, the “self-splicing fitness (ln)” value (30 °C) is -4.67 ± 0.51.
Still for that read-out and setting: the same measure for CAGAAGCAAUAUUACGUAUC: -5.56 ± 0.71.
As for UAGUAGCAAUAUUACGUAUG, the “self-splicing fitness (ln)” value is -1.82 ± 0.1 (30 °C) and -0.711 ± 0.12 (37 °C).
Take CGAGAGCAAUAUUACGCCAG: the “self-splicing fitness (ln)” value (30 °C) is -2.21 ± 0.65.
With GGGAAGCAAUAUUACGCCAC, the “self-splicing fitness (ln)” value (37 °C) is -2.89 ± 0.74.
Still for that read-out and setting: under AUUUAGCAAUAUUACGGGGC stands -2.08 ± 0.51.
As for ACGGAGCAAUAUUACGGAGA, the “self-splicing fitness (ln)” value (30 °C) was -1.4 ± 1.2.
In the case of CUAUAGCAAUAUUACGUCUC, the “self-splicing fitness (ln)” value (37 °C) is -0.663 ± 0.68.
Regarding CAAUAGCAAUAUUACGGACC, under “30 °C”, the “self-splicing fitness (ln)” value is -3.88 ± 1.1.
For the sequence UUUGAGCAAUAUUACGUCCG, under “30 °C”, the “self-splicing fitness (ln)” value was -1.4 ± 1.2.
On the same count and under the same terms, under CAGAAGCAAUAUUACGGGAC stands -4.14 ± 0.72.
As for AAAUAGCAAUAUUACGCUAG, the “self-splicing fitness (ln)” value was -1.55 ± 0.13 (30 °C) and -1 ± 0.15 (37 °C).
For GCUAAGCAAUAUUACGAUCA the same measures were -1.29 ± 0.11 and -0.823 ± 0.093.
Taken in the same sequence, the figures for UUAUAGCAAUAUUACGAAUA were -0.72 ± 0.67 and -1.92 ± 0.66.
Turning to UGGGAGCAAUAUUACGUGAA, the “self-splicing fitness (ln)” value is, setting by setting: (30 °C) -2.16 ± 0.61; (37 °C) -0.758 ± 0.55.
Consider UGCUAGCAAUAUUACGGUAC, for which the “self-splicing fitness (ln)” value (30 °C) is -1.4 ± 1.2.
Turning to AACGAGCAAUAUUACGUGAC, the “self-splicing fitness (ln)” value (30 °C) is -5.36 ± 0.5.
Still for that read-out and setting: under GUUAAGCAAUAUUACGUCAC stands -1.61 ± 0.51; under CACUAGCAAUAUUACGGACC, -3.83 ± 0.72; under CAAGAGCAAUAUUACGGACU, -3.3 ± 0.74.
On to AUUGAGCAAUAUUACGACCG, for which the “self-splicing fitness (ln)” value was -1.81 ± 0.76 (30 °C) and -2.52 ± 0.77 (37 °C).
Take UCCGAGCAAUAUUACGUCCU: for the setting “37 °C”, the “self-splicing fitness (ln)” value was -1.75 ± 0.67.
In the case of GAAGAGCAAUAUUACGACCG, the “self-splicing fitness (ln)” value (37 °C) was -3.55 ± 0.73.
Regarding GAAUAGCAAUAUUACGAAGG, the “self-splicing fitness (ln)” value was -2.77 ± 0.27 (30 °C) and -3.62 ± 0.73 (37 °C).
Take CCUGAGCAAUAUUACGCCGG: the “self-splicing fitness (ln)” value (30 °C) is -1.93 ± 0.58.
UAUUAGCAAUAUUACGCGCU: the “self-splicing fitness (ln)” value is -0.731 ± 0.15 (30 °C) and -0.558 ± 0.18 (37 °C).
For CCUUAGCAAUAUUACGCCCC, for the setting “37 °C”, the “self-splicing fitness (ln)” value is -0.44 ± 1.4.
Take AUCGAGCAAUAUUACGCAGC: the “self-splicing fitness (ln)” value is, setting by setting: (30 °C) -3.54 ± 1; (37 °C) -0.517 ± 1.
